Laboratory results reported in publication PMC7239659.
No constants are given. Whether binding was seen depends on the method and setting. In cells and extracts the contact can be indirect. Some results given as binding are weak or reduced against the parent protein; the word gives no strength.

By UniProt entry, the sequences of proteins in these tests, tags left out.
UniProt Q9NDJ2: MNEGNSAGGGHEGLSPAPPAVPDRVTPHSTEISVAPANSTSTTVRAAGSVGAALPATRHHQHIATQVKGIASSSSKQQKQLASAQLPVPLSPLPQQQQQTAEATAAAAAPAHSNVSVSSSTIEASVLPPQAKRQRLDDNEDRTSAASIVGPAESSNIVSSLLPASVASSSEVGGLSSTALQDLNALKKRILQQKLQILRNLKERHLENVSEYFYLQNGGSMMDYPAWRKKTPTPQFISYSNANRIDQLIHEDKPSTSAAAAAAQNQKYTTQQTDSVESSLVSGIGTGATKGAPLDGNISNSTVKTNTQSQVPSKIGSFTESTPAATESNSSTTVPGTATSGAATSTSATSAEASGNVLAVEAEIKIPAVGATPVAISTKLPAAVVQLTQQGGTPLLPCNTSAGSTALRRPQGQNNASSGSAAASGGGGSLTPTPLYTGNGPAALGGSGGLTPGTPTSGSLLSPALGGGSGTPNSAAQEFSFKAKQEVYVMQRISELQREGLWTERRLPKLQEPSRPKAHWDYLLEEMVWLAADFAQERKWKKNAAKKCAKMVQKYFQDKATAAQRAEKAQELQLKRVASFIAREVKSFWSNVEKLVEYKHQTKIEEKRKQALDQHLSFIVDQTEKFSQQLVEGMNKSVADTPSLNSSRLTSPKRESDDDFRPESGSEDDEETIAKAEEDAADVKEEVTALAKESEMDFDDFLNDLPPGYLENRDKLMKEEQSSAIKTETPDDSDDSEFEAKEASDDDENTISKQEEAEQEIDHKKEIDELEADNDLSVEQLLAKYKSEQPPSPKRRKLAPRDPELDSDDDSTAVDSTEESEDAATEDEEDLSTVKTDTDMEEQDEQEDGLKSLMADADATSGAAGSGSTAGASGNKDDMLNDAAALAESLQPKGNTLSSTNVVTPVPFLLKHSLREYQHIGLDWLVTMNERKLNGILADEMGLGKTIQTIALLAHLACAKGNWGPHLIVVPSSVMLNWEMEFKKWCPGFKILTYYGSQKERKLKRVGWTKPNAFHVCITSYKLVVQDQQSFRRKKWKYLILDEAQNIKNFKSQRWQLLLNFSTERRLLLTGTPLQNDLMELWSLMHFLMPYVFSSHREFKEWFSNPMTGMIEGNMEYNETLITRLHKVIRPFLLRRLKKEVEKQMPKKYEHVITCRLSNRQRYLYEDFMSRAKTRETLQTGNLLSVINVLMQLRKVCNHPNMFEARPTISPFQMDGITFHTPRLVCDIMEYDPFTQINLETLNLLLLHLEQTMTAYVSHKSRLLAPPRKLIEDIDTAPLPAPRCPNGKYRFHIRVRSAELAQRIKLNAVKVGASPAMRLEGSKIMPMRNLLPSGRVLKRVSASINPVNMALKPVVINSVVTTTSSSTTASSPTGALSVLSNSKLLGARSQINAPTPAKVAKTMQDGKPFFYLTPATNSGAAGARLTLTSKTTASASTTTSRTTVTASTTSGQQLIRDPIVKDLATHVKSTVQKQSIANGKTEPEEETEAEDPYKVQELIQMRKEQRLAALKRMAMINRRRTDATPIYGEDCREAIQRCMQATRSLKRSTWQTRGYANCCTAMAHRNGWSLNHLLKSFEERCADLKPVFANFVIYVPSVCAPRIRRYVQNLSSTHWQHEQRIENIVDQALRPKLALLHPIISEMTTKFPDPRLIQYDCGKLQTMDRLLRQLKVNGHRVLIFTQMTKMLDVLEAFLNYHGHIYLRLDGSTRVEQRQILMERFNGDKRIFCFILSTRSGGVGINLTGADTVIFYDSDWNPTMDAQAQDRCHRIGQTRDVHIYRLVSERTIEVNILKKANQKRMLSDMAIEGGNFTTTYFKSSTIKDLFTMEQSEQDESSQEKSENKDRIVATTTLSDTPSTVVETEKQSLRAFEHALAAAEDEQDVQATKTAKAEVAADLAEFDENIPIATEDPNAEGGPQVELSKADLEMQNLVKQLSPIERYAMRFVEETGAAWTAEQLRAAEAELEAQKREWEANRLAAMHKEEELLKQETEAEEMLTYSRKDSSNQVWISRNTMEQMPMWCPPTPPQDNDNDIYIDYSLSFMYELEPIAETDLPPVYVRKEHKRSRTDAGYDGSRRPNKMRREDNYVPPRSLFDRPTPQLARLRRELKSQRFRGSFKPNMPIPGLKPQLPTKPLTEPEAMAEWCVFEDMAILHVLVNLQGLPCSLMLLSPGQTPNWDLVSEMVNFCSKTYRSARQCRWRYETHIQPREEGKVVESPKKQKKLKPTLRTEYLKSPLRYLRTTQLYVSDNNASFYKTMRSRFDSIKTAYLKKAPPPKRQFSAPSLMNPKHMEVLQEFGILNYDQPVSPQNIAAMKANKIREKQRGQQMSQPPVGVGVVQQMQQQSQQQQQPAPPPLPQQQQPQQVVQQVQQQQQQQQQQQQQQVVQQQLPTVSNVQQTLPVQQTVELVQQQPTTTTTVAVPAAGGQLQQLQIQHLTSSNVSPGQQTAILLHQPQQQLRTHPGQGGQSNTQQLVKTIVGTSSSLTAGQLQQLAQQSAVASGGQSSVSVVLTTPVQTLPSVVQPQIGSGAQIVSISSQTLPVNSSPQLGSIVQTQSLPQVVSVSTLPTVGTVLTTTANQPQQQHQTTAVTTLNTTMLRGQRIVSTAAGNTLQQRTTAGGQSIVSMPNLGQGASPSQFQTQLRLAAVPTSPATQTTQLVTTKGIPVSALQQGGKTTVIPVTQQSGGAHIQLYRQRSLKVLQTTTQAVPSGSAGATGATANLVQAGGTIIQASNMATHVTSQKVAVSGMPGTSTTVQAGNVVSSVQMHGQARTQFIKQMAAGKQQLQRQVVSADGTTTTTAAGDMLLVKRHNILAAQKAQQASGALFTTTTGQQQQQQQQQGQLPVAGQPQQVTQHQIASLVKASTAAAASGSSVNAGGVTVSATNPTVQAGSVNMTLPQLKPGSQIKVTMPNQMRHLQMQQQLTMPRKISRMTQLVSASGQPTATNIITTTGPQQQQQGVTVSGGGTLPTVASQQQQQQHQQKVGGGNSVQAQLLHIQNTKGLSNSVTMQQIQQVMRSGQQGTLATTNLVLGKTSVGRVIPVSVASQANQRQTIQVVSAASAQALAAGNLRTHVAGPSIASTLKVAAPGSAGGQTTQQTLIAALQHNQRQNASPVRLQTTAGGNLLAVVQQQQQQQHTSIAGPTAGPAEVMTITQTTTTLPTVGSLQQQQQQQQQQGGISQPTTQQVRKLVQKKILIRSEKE
UniProt Q960X4: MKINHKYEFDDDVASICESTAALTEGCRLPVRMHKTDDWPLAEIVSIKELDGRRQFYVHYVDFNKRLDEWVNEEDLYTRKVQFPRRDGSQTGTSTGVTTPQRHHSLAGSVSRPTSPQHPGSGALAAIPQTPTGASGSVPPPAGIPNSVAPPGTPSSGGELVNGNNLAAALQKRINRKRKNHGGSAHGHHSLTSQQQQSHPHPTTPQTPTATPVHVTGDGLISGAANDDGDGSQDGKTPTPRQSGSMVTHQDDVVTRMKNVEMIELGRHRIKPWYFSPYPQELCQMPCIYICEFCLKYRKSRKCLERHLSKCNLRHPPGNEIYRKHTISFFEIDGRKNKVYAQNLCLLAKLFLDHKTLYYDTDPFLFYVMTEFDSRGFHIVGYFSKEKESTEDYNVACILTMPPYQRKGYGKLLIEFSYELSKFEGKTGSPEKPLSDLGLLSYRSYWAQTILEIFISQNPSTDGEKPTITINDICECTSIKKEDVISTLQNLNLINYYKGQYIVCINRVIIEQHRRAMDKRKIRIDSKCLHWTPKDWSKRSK

Biological target: DOM-A (DOMINO isoform A, DOM-RA), endogenously 3XFLAG-tagged (D. melanogaster (endogenous in S2 cells)) (UniProt Q9NDJ2)
Test: co-IP; FLAG-m2 beads on nuclear extract of S2 cells with endogenously 3XFLAG-tagged DOM-A or DOM-B (untagged cells as control), Protein-RIPA buffer, Benzonase, 3 hr at 4°C; western blot

Which binding does the source give for “TIP60 (from UniProt Q960X4 1-541) (enzyme)” here?
Its binding is “binds”.
